{"source": "PubChem BioAssay AID1259308 | NCATS | 2017", "screen": "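Candidate targets for better recombinant protein yield in mammalian cells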 (primary screen)", "cell system": "human HEK293 embryonic kidney cells stably expressing firefly luciferase (HEK-CMV-Luc2-Hygro)", "reagent": "single siRNA against human genes, 0.8 pmol siRNA per well", "time to read-out": "72 h", "measurement": "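Luciferase light (ONE-Glo) measured on one replicate plate set and viability (CellTiter-Glo) on the other, scaled to a negative control siRNA, with robust z-scores and luciferase per cell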", "reading the numbers": "total luciferase, z-score and total luciferase, % of control: higher = more reporter protein produced", "rule for the call": "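Active when the median/MAD z-score for overall luciferase is greater than 3; a gene was taken forward for validation with new siRNAs if at least two of its three siRNAs passed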", "meaning of the calls": "active = raised luciferase; inactive = no rise", "note": "Here is a random part of about 59,000 reagents tested. Over the whole deposit, about 1,510 (2.6%) were called active. 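Calls use total luciferase alone and ignore viability, so some active siRNAs may act by altering cell number.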 Reagents against one gene are numbered here. Further read-outs or replicates are left out here."}
{"Target gene": "NLRP13", "reagent no.": 1, "total luciferase, z-score": -0.206, "total luciferase, % of control": 77.8, "Call": "inactive"}
{"Target gene": "NLRP13", "reagent no.": 2, "total luciferase, z-score": -0.0926, "total luciferase, % of control": 80, "Call": "inactive"}
{"Target gene": "NLRP13", "reagent no.": 3, "total luciferase, z-score": -2.4, "total luciferase, % of control": 34.1, "Call": "inactive"}
{"Target gene": "ARHGEF9", "reagent no.": 1, "total luciferase, z-score": -0.964, "total luciferase, % of control": 62.7, "Call": "inactive"}
{"Target gene": "ARHGEF9", "reagent no.": 2, "total luciferase, z-score": 0.623, "total luciferase, % of control": 94.3, "Call": "inactive"}
{"Target gene": "ARHGEF9", "reagent no.": 3, "total luciferase, z-score": -1.34, "total luciferase, % of control": 55.2, "Call": "inactive"}
{"Target gene": "RALGAPA1", "reagent no.": 1, "total luciferase, z-score": -0.0466, "total luciferase, % of control": 81, "Call": "inactive"}
{"Target gene": "RALGAPA1", "reagent no.": 2, "total luciferase, z-score": -0.525, "total luciferase, % of control": 71.4, "Call": "inactive"}
{"Target gene": "RALGAPA1", "reagent no.": 3, "total luciferase, z-score": 0.974, "total luciferase, % of control": 101, "Call": "inactive"}
{"Target gene": "TIPIN", "reagent no.": 1, "total luciferase, z-score": 0.191, "total luciferase, % of control": 85.7, "Call": "inactive"}
{"Target gene": "TIPIN", "reagent no.": 2, "total luciferase, z-score": -0.702, "total luciferase, % of control": 67.9, "Call": "inactive"}
{"Target gene": "TIPIN", "reagent no.": 3, "total luciferase, z-score": 0.0256, "total luciferase, % of control": 82.4, "Call": "inactive"}
{"Target gene": "ZC3HC1", "reagent no.": 1, "total luciferase, z-score": -0.571, "total luciferase, % of control": 70.5, "Call": "inactive"}
{"Target gene": "ZC3HC1", "reagent no.": 2, "total luciferase, z-score": -0.432, "total luciferase, % of control": 73.3, "Call": "inactive"}
{"Target gene": "ZC3HC1", "reagent no.": 3, "total luciferase, z-score": -1.5, "total luciferase, % of control": 52.1, "Call": "inactive"}
{"Target gene": "GTF3C5", "reagent no.": 1, "total luciferase, z-score": 0.0956, "total luciferase, % of control": 83.8, "Call": "inactive"}
{"Target gene": "GTF3C5", "reagent no.": 2, "total luciferase, z-score": -0.928, "total luciferase, % of control": 63.4, "Call": "inactive"}
{"Target gene": "GTF3C5", "reagent no.": 3, "total luciferase, z-score": 0.876, "total luciferase, % of control": 99.3, "Call": "inactive"}
{"Target gene": "ADH7", "reagent no.": 1, "total luciferase, z-score": 0.946, "total luciferase, % of control": 101, "Call": "inactive"}
{"Target gene": "ADH7", "reagent no.": 2, "total luciferase, z-score": -0.273, "total luciferase, % of control": 76.5, "Call": "inactive"}
{"Target gene": "ADH7", "reagent no.": 3, "total luciferase, z-score": -0.0313, "total luciferase, % of control": 81.3, "Call": "inactive"}

Laid out differently: results already given.
Target gene	reagent no.	total luciferase, z-score	total luciferase, % of control	Call
NLRP13	2	-0.0926	80	inactive
NLRP13	3	-2.4	34.1	inactive
ARHGEF9	1	-0.964	62.7	inactive
